Reference: PMC4671574
These are yes or no findings as the source states them, for the method shown. Binding seen in cells or lysates may run through a third protein. A yes stands for co-enrichment or nearness to the bait. Other partners may have been found. Values belong to the binder of their own block, whether it stands above or below them.

Target: T1, Noc2-TAP (S. cerevisiae) (UniProt P39744)
T1 sequence: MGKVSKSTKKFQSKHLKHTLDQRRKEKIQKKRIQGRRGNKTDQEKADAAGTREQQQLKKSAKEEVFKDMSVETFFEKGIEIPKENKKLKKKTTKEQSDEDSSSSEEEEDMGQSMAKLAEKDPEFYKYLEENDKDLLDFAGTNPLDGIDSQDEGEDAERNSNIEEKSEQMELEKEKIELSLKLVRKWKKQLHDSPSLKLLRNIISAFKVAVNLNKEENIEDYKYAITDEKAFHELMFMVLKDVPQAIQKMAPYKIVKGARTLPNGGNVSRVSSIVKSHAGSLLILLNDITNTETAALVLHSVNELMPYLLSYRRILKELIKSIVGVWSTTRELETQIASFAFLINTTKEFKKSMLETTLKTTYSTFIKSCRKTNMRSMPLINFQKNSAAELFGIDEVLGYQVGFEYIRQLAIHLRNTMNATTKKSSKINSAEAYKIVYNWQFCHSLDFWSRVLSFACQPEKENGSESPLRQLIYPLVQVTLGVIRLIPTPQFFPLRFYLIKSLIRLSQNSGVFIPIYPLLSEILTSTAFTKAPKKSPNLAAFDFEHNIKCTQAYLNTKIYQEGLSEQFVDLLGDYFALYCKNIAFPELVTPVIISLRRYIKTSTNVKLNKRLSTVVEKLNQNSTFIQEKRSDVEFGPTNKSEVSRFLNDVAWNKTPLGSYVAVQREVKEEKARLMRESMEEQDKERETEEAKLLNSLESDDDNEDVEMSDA
Test: affinity purification with mass spectrometry; Noc2-TAP and associated pre-ribosomal particles purified on magnetic beads coated with rabbit IgG from total cellular extracts of yeast (wild type and GAL1/10 r-protein expression mutants after 4 h in glucose medium); eluted proteins digested with trypsin, peptides labelled with iTRAQ and identified by mass spectrometry; levels normalised to Noc2-TAP

B2: Ebp2 (protein, UniProt P36049 1-427)
chain: MAKGFKLKELLSHQKEIEKAEKLENDLKKKKSQELKKEEPTIVTASNLKKLEKKEKKADVKKEVAADTEEYQSQALSKKEKRKLKKELKKMQEQDATEAQKHMSGDEDESGDDREEEEEEEEEEEGRLDLEKLAKSDSESEDDSESENDSEEDEDVVAKEESEEKEEQEEEQDVPLSDVEFDSDADVVPHHKLTVNNTKAMKHALERVQLPWKKHSFQEHQSVTSETNTDEHIKDIYDDTERELAFYKQSLDAVLVARDELKRLKVPFKRPLDYFAEMVKSDEHMDKIKGKLIEEASDKKAREEARRQRQLKKFGKQVQNATLQKRQLEKRETLEKIKSLKNKRKHNEIDHSEFNVGVEEEVEGKRFDRGRPNGKRAAKNAKYGQGGMKRFKRKNDATSSADVSGFSSRKMKGKTNRPGKSRRARRF
binding: binds

B4: Erb1 (protein, UniProt Q04660 1-807)
chain: MMAKNNKTTEAKMSKKRAASEESDVEEDEDKLLSVDGLIDAEASESDEDDDEYESAVEEKESSSDKEAQDDSDDDSDAELNKLLAEEEGDGEEDYDSSEFSDDTTSLTDRLSGVKLQTIVDPNIYSKYADGSDRIIKPEINPVYDSDDSDAETQNTIGNIPLSAYDEMPHIGYDINGKRIMRPAKGSALDQLLDSIELPEGWTGLLDKNSGSSLNLTKEELELISKIQRNEQTDDSINPYEPLIDWFTRHEEVMPLTAVPEPKRRFVPSKNEAKRVMKIVRAIREGRIIPPKKLKEMKEKEKIENYQYDLWGDSTETNDHVMHLRAPKLPPPTNEESYNPPEEYLLSPEEKEAWENTEYSERERNFIPQKYSALRKVPGYGESIRERFERSLDLYLAPRVRKNKLNIDPNSLIPELPSPKDLRPFPIRCSTIYAGHKGKVRTLSIDPSGLWLATGSDDGTVRVWEILTGREVYRTTLIDDEENPDYHIECIEWNPDANNGILAVAVGENIHLIVPPIFGYDIENNGKTKIEDGFGYDTFGTVKKSNLEVNENGDGDEDGENESAKNAVKKQVAQWNKPSQKQLEKDICITISCKKTVKKLSWHRKGDYFVTVQPDSGNTSVLIHQVSKHLTQSPFKKSKGIIMDAKFHPFKPQLFVCSQRYVRIYDLSQQILVKKLLPGARWLSKIDIHPRGDNLIASSFDKRVLWHDLDLASTPYKTLRYHEKAVRSVNFHKKLPLFSSAADDGTIHVFHATVYDDMMKNPMIVPLKKLTGHKVINSLGVLDAIWHPREAWLFSAGADNTARLWTT
binding: binds

The next lines start with the values.

binding: binds
B1: Nop15 (protein, UniProt P53927 1-220)
chain: MVKSTSKTSTKETVTKQPTEEKPIQEKEELALETSSSSSDEEDEKDEDEIEGLAASDDEQSGTHKIKRLNPKKQANEKKSKDKKTLEEYSGIIYVSRLPHGFHEKELSKYFAQFGDLKEVRLARNKKTGNSRHYGFLEFVNKEDAMIAQESMNNYLLMGHLLQVRVLPKGAKIEKLYKYKKRVLVEKGITKPVKQLKDNMKQKHEERIKKLAKSGIEFKW

binding: binds
B3: Nsa2 (protein, UniProt P40078 1-261)
chain: MPQNDYIERHIKQHGKRLDHEERKRKREARESHKISERAQKLTGWKGKQFAKKRYAEKVSMRKKIKAHEQSKVKGSSKPLDTDGDALPTYLLDREQNNTAKAISSSIKQKRLEKADKFSVPLPKVRGISEEEMFKVIKTGKSRSKSWKRMITKHTFVGEGFTRRPVKMERIIRPSALRQKKANVTHPELGVTVFLPILAVKKNPQSPMYTQLGVLTKGTIIEVNVSELGMVTAGGKVVWGKYAQVTNEPDRDGCVNAVLLV
